Data reported in PMC10968976, “Targeting CDK9 in Cancer: An Integrated Approach of Combining In Silico Screening with Experimental Validation for Novel Degraders” (Current Issues in Molecular Biology, 2024).

Tested on: NCI-H358 cells
Assay: Cell viability (cell-titer-glo), NCI-H358
Format: cell-based
Description: The cell lines used in this study were purchased from ATCC (https://www.atcc.org, accessed on 18 December 2023) and maintained under standard conditions at 37 °C with a 5% CO2 atmosphere. NCI-H-358 cells were cultivated in 1X RPMI 1640 medium, while MIA-PaCa2 cells were cultured using 1X DMEM. Both culture media were supplemented with 10% fetal bovine serum and 1X Penicillin/Streptomycin (Gibco). For culturing the Melma-3M cells, IMDM media fortified with 20% fetal bovine serum and 1X Penicillin/Streptomycin was used. […]
Briefly, for cell viability experiments, after splitting, cells from each respective cell line were plated onto 96-well plates (MSP, Cat # CT-229185) at a density of about 1 × 10^4 cells/mL and 200 µL per well using the appropriate cell culture media after about 24 h at 37 °C, the cell media in each 96-well plate were replaced with media containing the various test compounds at varying concentrations. […] Each plate was gently mixed for ca. 10 min at room temperature and then transferred to a plate reader (Bio-Tek, Synergy HTX, Winooski, VT, USA, multimode reader) for chemiluminescence measurement as a proportional indicator of cell viability.
TB003 and TB008 have also been evaluated for cell growth inhibition and killing using two cell lines, NCI-H358, a non-small cell lung carcinoma-derived cell line, and MIA-PaCa-2, a pancreatic carcinoma-derived cell line. […]

O=C1[O][Pt]2([NH][C@@H]3CCCC[C@H]3[NH]2)[O]C1=O [Oxaliplatin, oxaliplatin]
concentrations with no statistical significance vs control: < 0.11 µM
